Consider 41 targets from the supplement of paper PMC12067093, “Discovery and optimisation of a covalent ligand for TRIM25 and its application to targeted protein ubiquitination” (Chemical Science, 2025).

Protein sequences, listed by entry. Tags and fused reporters are not part of them. Lines headed by an entry give the natural chain unless they say otherwise; changes in a name come on top.
UniProt Q14204, whole entry, looked up: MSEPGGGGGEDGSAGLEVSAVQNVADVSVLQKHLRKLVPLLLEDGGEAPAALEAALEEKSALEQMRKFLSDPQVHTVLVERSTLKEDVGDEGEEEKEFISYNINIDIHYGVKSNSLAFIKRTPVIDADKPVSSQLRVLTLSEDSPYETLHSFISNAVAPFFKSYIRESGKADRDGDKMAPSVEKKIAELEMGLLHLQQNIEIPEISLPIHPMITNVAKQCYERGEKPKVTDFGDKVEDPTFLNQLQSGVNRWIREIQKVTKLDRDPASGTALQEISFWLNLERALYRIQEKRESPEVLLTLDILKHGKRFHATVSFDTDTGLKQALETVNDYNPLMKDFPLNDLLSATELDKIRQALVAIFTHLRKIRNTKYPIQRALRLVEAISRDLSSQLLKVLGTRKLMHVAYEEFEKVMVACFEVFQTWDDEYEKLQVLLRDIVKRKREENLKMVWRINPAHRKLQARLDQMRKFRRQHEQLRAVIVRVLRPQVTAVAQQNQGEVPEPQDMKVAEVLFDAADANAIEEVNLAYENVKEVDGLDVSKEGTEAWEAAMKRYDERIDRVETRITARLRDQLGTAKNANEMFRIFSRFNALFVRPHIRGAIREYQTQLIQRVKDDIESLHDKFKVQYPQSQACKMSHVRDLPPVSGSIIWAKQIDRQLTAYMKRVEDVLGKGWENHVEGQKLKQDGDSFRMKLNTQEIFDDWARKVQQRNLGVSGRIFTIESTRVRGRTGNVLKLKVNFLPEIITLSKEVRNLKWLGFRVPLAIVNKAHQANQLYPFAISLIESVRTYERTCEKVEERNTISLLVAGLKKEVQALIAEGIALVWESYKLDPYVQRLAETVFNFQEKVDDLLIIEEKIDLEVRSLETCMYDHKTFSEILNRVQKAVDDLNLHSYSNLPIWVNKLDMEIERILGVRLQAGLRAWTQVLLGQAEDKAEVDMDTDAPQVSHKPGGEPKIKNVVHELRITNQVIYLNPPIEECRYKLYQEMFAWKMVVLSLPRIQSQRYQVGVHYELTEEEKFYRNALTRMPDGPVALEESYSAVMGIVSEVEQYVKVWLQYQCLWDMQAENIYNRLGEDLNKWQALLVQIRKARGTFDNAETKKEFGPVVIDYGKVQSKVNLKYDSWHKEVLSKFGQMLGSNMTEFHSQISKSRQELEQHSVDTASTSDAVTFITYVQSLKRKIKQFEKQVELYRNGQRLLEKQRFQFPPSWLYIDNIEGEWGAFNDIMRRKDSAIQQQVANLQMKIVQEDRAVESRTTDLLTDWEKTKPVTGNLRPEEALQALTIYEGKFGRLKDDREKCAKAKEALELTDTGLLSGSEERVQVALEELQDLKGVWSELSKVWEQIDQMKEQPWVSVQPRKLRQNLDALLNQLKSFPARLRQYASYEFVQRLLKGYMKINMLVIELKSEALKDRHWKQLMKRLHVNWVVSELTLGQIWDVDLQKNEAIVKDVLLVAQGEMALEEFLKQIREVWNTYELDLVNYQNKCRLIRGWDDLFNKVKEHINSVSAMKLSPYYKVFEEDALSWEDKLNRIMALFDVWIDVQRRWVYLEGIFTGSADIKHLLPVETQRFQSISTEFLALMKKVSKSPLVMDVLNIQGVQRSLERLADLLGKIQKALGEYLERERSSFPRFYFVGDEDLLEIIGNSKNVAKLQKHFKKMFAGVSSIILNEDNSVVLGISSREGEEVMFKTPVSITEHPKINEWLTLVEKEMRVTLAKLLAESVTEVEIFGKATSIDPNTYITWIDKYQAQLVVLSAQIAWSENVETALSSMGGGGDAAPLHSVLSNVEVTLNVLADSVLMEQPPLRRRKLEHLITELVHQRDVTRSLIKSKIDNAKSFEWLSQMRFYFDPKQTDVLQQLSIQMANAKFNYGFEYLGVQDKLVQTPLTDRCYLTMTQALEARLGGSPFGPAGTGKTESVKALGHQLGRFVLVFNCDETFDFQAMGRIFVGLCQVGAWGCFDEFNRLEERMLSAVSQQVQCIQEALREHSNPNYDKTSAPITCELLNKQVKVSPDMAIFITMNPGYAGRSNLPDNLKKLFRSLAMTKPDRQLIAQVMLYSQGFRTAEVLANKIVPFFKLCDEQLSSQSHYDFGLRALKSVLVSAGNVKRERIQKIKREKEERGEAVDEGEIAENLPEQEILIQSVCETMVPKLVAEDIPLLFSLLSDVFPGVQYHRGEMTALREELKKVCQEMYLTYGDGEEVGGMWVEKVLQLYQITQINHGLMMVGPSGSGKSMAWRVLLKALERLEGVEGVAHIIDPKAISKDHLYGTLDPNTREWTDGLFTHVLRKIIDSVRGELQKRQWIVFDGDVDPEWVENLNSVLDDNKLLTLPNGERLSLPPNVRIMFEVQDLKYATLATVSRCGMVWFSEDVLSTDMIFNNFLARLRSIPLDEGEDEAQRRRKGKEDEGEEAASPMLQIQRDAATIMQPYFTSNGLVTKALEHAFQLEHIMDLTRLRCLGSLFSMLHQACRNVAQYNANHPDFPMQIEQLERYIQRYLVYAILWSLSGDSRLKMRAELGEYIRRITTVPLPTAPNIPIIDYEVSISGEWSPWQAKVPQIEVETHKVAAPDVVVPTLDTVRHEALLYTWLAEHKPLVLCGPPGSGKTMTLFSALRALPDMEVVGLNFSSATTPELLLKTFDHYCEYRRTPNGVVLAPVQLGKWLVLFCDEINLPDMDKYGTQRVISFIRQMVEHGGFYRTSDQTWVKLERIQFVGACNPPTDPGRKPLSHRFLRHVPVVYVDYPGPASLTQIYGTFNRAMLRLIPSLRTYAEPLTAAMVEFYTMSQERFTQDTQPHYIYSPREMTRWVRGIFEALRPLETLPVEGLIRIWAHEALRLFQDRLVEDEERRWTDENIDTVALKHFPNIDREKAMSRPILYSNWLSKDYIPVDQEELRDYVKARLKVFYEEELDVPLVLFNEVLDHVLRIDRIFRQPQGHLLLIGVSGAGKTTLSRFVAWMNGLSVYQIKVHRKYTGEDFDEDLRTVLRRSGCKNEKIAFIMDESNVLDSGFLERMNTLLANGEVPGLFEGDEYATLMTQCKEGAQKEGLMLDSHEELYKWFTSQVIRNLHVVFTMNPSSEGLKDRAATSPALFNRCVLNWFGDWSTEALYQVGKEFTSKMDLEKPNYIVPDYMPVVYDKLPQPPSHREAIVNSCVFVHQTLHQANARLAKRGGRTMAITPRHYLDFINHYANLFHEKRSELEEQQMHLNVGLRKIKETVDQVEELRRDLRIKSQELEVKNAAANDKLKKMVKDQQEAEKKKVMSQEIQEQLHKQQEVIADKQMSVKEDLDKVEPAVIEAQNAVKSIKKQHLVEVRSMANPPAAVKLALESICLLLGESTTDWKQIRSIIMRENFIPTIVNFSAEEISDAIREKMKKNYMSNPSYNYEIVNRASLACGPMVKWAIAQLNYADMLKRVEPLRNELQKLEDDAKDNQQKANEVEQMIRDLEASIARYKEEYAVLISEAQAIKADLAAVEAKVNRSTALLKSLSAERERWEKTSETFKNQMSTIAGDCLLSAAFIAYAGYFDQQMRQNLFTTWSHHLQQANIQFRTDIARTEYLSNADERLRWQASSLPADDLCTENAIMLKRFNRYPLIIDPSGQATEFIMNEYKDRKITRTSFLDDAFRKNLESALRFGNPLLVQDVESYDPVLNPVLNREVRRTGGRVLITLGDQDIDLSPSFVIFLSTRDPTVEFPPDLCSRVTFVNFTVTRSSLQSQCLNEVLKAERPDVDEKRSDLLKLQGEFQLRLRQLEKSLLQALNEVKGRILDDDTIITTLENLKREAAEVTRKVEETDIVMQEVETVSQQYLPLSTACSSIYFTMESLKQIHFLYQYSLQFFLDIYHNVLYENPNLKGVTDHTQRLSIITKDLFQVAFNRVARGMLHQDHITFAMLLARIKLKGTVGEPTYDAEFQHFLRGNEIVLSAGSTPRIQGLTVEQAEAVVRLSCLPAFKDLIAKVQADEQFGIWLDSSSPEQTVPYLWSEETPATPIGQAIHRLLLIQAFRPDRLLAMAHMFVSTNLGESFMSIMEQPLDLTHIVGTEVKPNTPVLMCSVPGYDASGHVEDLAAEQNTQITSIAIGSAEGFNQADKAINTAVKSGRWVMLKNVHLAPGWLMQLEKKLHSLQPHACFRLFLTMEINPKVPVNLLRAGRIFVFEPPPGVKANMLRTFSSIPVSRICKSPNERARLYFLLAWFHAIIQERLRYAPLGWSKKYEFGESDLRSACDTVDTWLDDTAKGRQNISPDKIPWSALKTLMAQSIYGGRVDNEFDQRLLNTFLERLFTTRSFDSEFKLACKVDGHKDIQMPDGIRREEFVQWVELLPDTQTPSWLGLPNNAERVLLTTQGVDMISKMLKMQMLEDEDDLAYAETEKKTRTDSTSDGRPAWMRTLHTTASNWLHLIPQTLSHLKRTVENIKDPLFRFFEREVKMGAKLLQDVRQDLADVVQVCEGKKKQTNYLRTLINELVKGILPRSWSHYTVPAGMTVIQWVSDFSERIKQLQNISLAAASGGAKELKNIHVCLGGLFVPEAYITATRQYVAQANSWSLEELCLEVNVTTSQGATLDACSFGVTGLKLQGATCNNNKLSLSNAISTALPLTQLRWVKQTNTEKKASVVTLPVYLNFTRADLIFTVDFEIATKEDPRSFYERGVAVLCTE
UniProt Q96G46: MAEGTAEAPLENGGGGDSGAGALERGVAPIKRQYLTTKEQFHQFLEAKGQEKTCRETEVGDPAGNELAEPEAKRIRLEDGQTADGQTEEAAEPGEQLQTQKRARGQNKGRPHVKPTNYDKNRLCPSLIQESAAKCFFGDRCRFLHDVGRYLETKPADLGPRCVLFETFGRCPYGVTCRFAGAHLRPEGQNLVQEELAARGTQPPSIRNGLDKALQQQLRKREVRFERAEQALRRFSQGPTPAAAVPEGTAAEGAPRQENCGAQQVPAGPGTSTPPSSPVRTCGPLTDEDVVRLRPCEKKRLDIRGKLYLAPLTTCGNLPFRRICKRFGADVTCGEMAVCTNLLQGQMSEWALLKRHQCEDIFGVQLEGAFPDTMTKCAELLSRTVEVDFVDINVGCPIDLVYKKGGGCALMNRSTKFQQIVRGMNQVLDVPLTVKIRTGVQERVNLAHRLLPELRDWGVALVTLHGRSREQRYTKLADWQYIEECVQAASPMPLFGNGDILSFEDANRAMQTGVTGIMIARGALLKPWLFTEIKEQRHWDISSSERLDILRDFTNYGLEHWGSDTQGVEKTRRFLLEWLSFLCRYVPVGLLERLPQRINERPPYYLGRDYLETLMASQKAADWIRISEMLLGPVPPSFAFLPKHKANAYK
UniProt P55039: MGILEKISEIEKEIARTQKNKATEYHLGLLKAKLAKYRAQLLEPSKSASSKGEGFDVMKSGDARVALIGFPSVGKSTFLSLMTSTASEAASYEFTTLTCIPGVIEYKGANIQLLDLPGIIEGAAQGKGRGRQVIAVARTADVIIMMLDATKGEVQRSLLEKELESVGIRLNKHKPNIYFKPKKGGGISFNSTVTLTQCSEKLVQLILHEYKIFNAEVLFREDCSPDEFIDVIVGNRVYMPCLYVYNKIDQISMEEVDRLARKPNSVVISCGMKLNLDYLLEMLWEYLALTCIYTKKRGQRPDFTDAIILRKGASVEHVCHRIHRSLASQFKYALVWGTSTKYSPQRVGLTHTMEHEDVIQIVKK
UniProt O60496: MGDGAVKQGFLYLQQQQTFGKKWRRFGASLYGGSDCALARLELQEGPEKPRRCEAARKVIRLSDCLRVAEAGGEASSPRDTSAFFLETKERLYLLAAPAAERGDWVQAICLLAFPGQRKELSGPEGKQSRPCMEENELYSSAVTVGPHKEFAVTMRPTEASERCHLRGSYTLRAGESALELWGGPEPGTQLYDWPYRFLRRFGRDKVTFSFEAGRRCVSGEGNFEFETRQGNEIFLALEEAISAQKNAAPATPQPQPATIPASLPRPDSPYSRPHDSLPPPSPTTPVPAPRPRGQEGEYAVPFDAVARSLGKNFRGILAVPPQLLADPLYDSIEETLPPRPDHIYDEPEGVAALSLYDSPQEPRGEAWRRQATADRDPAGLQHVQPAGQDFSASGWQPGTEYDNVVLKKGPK
UniProt Q96EV8: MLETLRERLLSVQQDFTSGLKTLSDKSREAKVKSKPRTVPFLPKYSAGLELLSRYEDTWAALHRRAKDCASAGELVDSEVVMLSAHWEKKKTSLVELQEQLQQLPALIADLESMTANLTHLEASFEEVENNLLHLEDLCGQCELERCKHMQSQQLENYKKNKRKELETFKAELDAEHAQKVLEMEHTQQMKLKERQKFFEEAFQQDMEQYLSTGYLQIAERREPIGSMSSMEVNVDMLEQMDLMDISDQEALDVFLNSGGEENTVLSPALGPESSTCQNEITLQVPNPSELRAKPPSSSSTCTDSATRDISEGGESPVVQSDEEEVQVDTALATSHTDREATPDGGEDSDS
UniProt P60981: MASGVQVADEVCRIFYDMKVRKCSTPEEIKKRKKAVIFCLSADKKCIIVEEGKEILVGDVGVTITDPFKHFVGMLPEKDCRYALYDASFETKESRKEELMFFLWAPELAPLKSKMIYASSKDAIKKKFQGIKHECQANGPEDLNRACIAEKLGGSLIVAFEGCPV

Compound in the test: CC1Cc2ccccc2N1C(=O)C1CCCN(C1)C(=O)CCl (mixture of isomers) [TRIM25 ligand 11 (diastereomer mixture)]
Kind of test: probe-labelled cysteine peptide fold change vs DMSO (competition) (log2 fold change); higher = less target engagement (more negative = stronger competition). As to conditions: THP-1, incubation time: 4 h.

The list shows a part of the results.
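Further: competitive chemoproteomic profiling in live THP-1 cells with an iodoacetamide desthiobiotin (IA-DTB) probe, comparing probe-labelled peptide intensities in compound-treated cells against DMSO-treated controls.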

Regarding “DUSP11_O75319_117_KLAPEECFSPLDLFNK (UniProt O75319)”, the “probe-labelled cysteine peptide fold change” value (10 µM) is -0.0108 and the “probe-labelled cysteine peptide fold change” value (50 µM) is 0.00877.

For “DOT1L_Q8TEK3_1397_EAGEGGLPLCGPTDK (UniProt Q8TEK3)”, the “probe-labelled cysteine peptide fold change” value is -0.0423 (10 µM) and -0.331 (50 µM).

Regarding “DOCK5_Q9H7D0_859_LNCMTK (UniProt Q9H7D0)”, the “probe-labelled cysteine peptide fold change” value is, setting by setting: (10 µM) 0.0249; (50 µM) -0.00631.

For the target “DYNC1H1_Q14204_4570_LQGATCNNNK (UniProt Q14204)”, the “probe-labelled cysteine peptide fold change” value was -0.0319 (10 µM) and 0.0555 (50 µM).

Turning to “DOCK2_Q92608_1655_QMSIISLASMNSDCSTPSKPTSESFDLELASPK (UniProt Q92608)”, the “probe-labelled cysteine peptide fold change” value runs as follows: (10 µM) -0.0892; (50 µM) -0.279.

In the case of “DOCK8_Q8NF50_1471_VLVNSLNCDQSTTYLTHCFATLR (UniProt Q8NF50)”, the “probe-labelled cysteine peptide fold change” value is, setting by setting: (10 µM) 0.253; (50 µM) 0.308.

For the target “DOCK10_Q96BY6_1310_TDNCEK (UniProt Q96BY6)”, the “probe-labelled cysteine peptide fold change” value is -0.0525 (10 µM) and 0.0605 (50 µM).

“DYNC1H1_Q14204_2712_IQFVGACNPPTDPGRK (UniProt Q14204)”: the “probe-labelled cysteine peptide fold change” value is, setting by setting: (10 µM) 0.103; (50 µM) 0.217.

As to “DOCK8_Q8NF50_846_NCLLASYVHYVFR (UniProt Q8NF50)”, the “probe-labelled cysteine peptide fold change” value was determined as 0.0759 (10 µM) and 0.189 (50 µM).

With “DOK3_Q7L591_282_CHSGEGLFAFSTPCAPDLCR (UniProt Q7L591)”, the “probe-labelled cysteine peptide fold change” value was 0.0857 (10 µM) and 0.211 (50 µM).

Take “DUS3L_Q96G46_408_GGGCALMNR (UniProt Q96G46)”: the “probe-labelled cysteine peptide fold change” value (10 µM) is -0.192 and the “probe-labelled cysteine peptide fold change” value (50 µM) was -0.169.

As to “DRG2_P55039_270_KPNSVVISCGMK (UniProt P55039)”, the “probe-labelled cysteine peptide fold change” value worked out at 0.117 (10 µM) and 0.165 (50 µM).

Consider “DOCK8_Q8NF50_186_HLNVLCDVSGK (UniProt Q8NF50)”, for which the “probe-labelled cysteine peptide fold change” value by setting is: (10 µM) -0.0767; (50 µM) -0.13.

As to “DOCK8_Q8NF50_361_VLQQGEIGDCAEPYTVIK (UniProt Q8NF50)”, the “probe-labelled cysteine peptide fold change” value by setting is: (10 µM) 0.147; (50 µM) 0.0195.

With “DUSP27_Q5VZP5_81_ADAECPGMLESAEQLLVEDLYNR (UniProt Q5VZP5)”, the “probe-labelled cysteine peptide fold change” value (10 µM) was -0.394 and the “probe-labelled cysteine peptide fold change” value (50 µM) was -0.249.

“DTYMK_P23919_117_ENFSLDWCK (UniProt P23919)”: the “probe-labelled cysteine peptide fold change” value by setting is: (10 µM) 0.0467; (50 µM) 0.0147.

For the target “DUS3L_Q96G46_171+177_CPYGVTCR (UniProt Q96G46)”, the “probe-labelled cysteine peptide fold change” value (10 µM) is 0.00831 and the “probe-labelled cysteine peptide fold change” value (50 µM) is -0.35.

With DOK2_O60496_65_LSDCLR (UniProt O60496), the “probe-labelled cysteine peptide fold change” value is -0.179 (10 µM) and -0.0172 (50 µM).

On to “DNMT1_P26358_62_NQLCDLETK (UniProt P26358)”, for which the “probe-labelled cysteine peptide fold change” value is, setting by setting: (10 µM) -0.174; (50 µM) -0.315.

Take EAF2_Q96CJ1_29_CAFHTVR (UniProt Q96CJ1): the “probe-labelled cysteine peptide fold change” value by setting is: (10 µM) 0.111; (50 µM) 0.0585.

For the target “DTX3L_Q8TDB6_41_SSGGGECTVSTQEHEAPGTFR (UniProt Q8TDB6)”, the “probe-labelled cysteine peptide fold change” value is -0.0681 (10 µM) and -0.0561 (50 µM).

As for “DYNC1H1_Q14204_2466_CLGSLFSMLHQACR (UniProt Q14204)”, the “probe-labelled cysteine peptide fold change” value was 0.00628 (10 µM) and 0.122 (50 µM).

Take “DOCK10_Q96BY6_2047_KVSELNQLCTMEEVDMIR (UniProt Q96BY6)”: the “probe-labelled cysteine peptide fold change” value by setting is: (10 µM) -0.0302; (50 µM) -0.0943.

Take “DRG2_P55039_319_GASVEHVCHR (UniProt P55039)”: the “probe-labelled cysteine peptide fold change” value by setting is: (10 µM) 0.122; (50 µM) 0.208.

Take “DUS3L_Q96G46_358_RHQCEDIFGVQLEGAFPDTMTK (UniProt Q96G46)”: the “probe-labelled cysteine peptide fold change” value by setting is: (10 µM) 0.0341; (50 µM) 0.0134.

On to “DTNBP1_Q96EV8_302_AKPPSSSSTCTDSATR (UniProt Q96EV8)”, for which the “probe-labelled cysteine peptide fold change” value (10 µM) was -0.104 and the “probe-labelled cysteine peptide fold change” value (50 µM) is -0.135.

Turning to “DOCK10_Q96BY6_2164_RGVDQTCTR (UniProt Q96BY6)”, the “probe-labelled cysteine peptide fold change” value was -0.0636 (10 µM) and -0.163 (50 µM).

As to “DOCK2_Q92608_1258_WSDEQCASQVMQTGQQHPQTHR (UniProt Q92608)”, the “probe-labelled cysteine peptide fold change” value is, setting by setting: (10 µM) 0.157; (50 µM) -0.015.

For the target “EARS2_Q5JPH6_411_QGHICR (UniProt Q5JPH6)”, the “probe-labelled cysteine peptide fold change” value runs as follows: (10 µM) -0.0604; (50 µM) 0.163.

For the target “DUS2_Q9NX74_475_AQELAQPGDLCK (UniProt Q9NX74)”, the “probe-labelled cysteine peptide fold change” value is, setting by setting: (10 µM) 0.031; (50 µM) -0.0911.

On to “DPF2_Q92785_333_CCNICGTSENDDQLLFCDDCDR (UniProt Q92785)”, for which the “probe-labelled cysteine peptide fold change” value is -0.0533 (10 µM) and 0.0542 (50 µM).

As to “DOK2_O60496_132_QSRPCMEENELYSSAVTVGPHK (UniProt O60496)”, the “probe-labelled cysteine peptide fold change” value by setting is: (10 µM) 0.0669; (50 µM) -0.283.

With “DPP8_Q6V1X1_286_YSGYWWCPK (UniProt Q6V1X1)”, the “probe-labelled cysteine peptide fold change” value was 0.162 (10 µM) and -0.0125 (50 µM).

As to “DYNC1I2_Q13409_484_AGISEMFEGHQGPITGIHCHAAVGAVDFSHLFVTSSFDWTVK (UniProt Q13409)”, the “probe-labelled cysteine peptide fold change” value runs as follows: (10 µM) 0.401; (50 µM) 0.0339.

Take “DSTN_P60981_163_LGGSLIVAFEGCPV (UniProt P60981)”: the “probe-labelled cysteine peptide fold change” value was -0.0526 (10 µM) and -0.225 (50 µM).

In the case of “DOCK11_Q5JSL3_1906_RIPINCEQQINLKPIDVATDEIK (UniProt Q5JSL3)”, the “probe-labelled cysteine peptide fold change” value was 0.0355 (10 µM) and 0.00758 (50 µM).

For the target “DTWD1_Q8N5C7_126_LLAPEFVNIYTYPCIPEYEEK (UniProt Q8N5C7)”, the “probe-labelled cysteine peptide fold change” value reads like this: (10 µM) 0.0474; (50 µM) -0.108.

As for “EAF1_Q96JC9_15_MNGTANPLLDREEHCLR (UniProt Q96JC9)”, the “probe-labelled cysteine peptide fold change” value by setting is: (10 µM) 0.0349; (50 µM) 0.0146.

Take “DPH5_Q9H2P9_119_VIHNASIMNAVGCCGLQLYK (UniProt Q9H2P9)”: the “probe-labelled cysteine peptide fold change” value by setting is: (10 µM) 0.113; (50 µM) 0.187.

As for “DOCK8_Q8NF50_197_GPVTACDFDLR (UniProt Q8NF50)”, the “probe-labelled cysteine peptide fold change” value was -0.0826 (10 µM) and -0.209 (50 µM).

With “DYNC1I2_Q13409_331_TTPEYVFHCQSAVMSATFAK (UniProt Q13409)”, the “probe-labelled cysteine peptide fold change” value was 0.08 (10 µM) and 0.0525 (50 µM).
